These are yes or no findings as the source states them, for the method shown. Some entries that bind do so weakly or less than the wild type. For some assays here: Where a sequence is shown, tags or fusion partners need not be part of it.
Tests used:
[1] = target: processive endoglucanase Cel9K from C. thermocellum fused to a dockerin module of ScaB from A. cellulolyticus; assay: affinity-based ELISA; enzyme coated on the plate, CBM-cohesin at 0.1-1000 ng/ul, detected with anti-CBM antibody
[2] = target: T1, endoglucanase Cel8A from C. thermocellum fused to a dockerin module of ScaA from B. cellulosolvens (C. thermocellum (catalytic module); B. cellulosolvens (dockerin)); assay: as above
T1 sequence: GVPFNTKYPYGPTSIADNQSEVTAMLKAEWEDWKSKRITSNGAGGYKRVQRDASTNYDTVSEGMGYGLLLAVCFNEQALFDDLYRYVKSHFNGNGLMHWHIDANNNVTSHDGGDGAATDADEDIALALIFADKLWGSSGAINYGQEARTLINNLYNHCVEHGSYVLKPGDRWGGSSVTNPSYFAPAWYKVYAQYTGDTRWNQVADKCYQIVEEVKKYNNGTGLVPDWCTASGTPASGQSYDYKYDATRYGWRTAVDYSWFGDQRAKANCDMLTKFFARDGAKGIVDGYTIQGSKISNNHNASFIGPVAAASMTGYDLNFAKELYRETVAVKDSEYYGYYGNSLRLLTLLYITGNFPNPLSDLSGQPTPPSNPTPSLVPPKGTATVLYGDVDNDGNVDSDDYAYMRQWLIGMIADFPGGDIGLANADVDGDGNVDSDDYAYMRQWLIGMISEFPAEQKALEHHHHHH

B1: CBM-CohAc C3 (protein)
chain: ANTPVSGNLKVEFYNSNPSDTTNSINPQFKVTNTGSSAIDLSKLTLRYYYTVDGQKDQTFWCDHAAIIGSNGSYNGITSNVKGTFVKMSSSTNNADTYLEISFTGGTLEPGAHVQIQGRFAKNDWSNYTQSNDYSFKSASQFVEWDQVTAYLNGVLVWGKEPGGSGSDLQVDIGSTSGKAGSVVSVPITFTNVPKSGIYALSFRTNFDPQKVTVASIDAGSLIENASDFTTYYNNENGFASMTFEAPVDRARIIDSDGVFATINFKVSDSAKVGELYNITTNSAYTSFYYSGTDEIKNVVYNDGKIEVIAS
[1]
  binding: binds

B2: CBM-Coh-Bc B3 (protein)
chain: ANTPVSGNLKVEFYNSNPSDTTNSINPQFKVTNTGSSAIDLSKLTLRYYYTVDGQKDQTFWCDHAAIIGSNGSYNGITSNVKGTFVKMSSSTNNADTYLEISFTGGTLEPGAHVQIQGRFAKNDWSNYTQSNDYSFKSASQFVEWDQVTAYLNGVLVWGKEPGGSSSPGNKMKIQIGDVKANQGDTVIVPITFNEVPVMGVNNCNFTLAYDKNIMEFISADAGDIVTLPMANYSYNMPSDGLVKFLYNDQAQGAMSIKEDGTFANVKFKIKQSAAFGKYSVGIKAIGSISALSNSKLIPIESIFKDGSITVTN
[2]
  binding: binds

From patent US20160186156A1
